For one substance, binding results are on record in paper PMC11749863.

Sequences of proteins named here, by UniProt entry; tags and fusion partners are left off. Residues count along the entry.
UniProt P11413: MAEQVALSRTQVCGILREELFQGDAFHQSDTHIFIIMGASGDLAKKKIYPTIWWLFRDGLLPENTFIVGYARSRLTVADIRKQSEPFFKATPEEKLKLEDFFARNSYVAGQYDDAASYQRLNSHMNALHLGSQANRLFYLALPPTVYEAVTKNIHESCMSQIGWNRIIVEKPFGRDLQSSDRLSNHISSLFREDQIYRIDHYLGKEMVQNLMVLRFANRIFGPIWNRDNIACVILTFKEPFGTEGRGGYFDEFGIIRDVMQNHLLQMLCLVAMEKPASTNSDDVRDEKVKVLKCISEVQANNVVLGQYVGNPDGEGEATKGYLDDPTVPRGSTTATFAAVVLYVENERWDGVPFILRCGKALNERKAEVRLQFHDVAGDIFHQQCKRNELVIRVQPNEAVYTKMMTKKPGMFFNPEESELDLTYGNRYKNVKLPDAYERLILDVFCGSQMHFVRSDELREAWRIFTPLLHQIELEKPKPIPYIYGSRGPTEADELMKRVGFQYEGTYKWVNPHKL
UniProt Q9BXM7, residues 78-581: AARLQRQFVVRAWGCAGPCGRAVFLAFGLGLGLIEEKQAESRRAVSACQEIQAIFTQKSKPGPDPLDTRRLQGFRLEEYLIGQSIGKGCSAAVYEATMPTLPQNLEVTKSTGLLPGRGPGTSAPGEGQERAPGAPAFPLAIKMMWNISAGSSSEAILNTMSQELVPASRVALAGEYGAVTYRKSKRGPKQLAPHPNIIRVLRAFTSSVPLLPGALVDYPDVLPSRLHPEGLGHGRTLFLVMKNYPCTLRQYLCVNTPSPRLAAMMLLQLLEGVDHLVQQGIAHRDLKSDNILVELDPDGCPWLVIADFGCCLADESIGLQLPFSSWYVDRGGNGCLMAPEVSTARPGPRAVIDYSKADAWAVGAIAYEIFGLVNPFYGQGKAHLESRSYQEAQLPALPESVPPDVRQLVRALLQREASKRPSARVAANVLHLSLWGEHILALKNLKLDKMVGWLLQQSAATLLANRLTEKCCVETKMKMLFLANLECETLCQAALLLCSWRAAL

The assay addresses FLAG-G6PD (UniProt P11413). Put plainly: pull-down; FLAG-G6PD isolated from HeLa mCherry-Parkin cells and held on FLAG M2 beads, incubated with 100 ng recombinant human PINK1 in 1 mL lysis buffer (25 mmol/L Tris-HCl pH 7.4, 150 mmol/L NaCl, 1% NP-40, 1 mmol/L EDTA, 5% glycerol) for 2 h at room temperature; western blot; both purified. A general note: A western blot detects proteins with antibodies after separation by electrophoresis.

These are yes or no findings as the source states them, for the method shown. Some binding calls cover weakened binding; strength is not graded here.

With “recombinant human PINK1 protein (from UniProt Q9BXM7 78-581) (enzyme)”, the binding result is reported as “binds”.
